{
  "source": "patent US20160000883A1",
  "about": "(ZEALAND PHARMA A/S, priority 2011, published 2016)",
  "assay": "peptide synthesis",
  "conditions": "whole synthesis",
  "data": [
    {"substance": "H-H-Aib-QGTFTSDYSKYLDS-K(Hexadecanoyl-isoGlu)-AAHDFVEWLLSA-NH2", "values": [
      {"measurement": "purity (crude or final not stated)", "result": 94, "unit": "%"}
    ]}
  ]
}
